The values below come from article PMC12622436.

No constants are given. Whether binding was seen depends on the method and setting. For part of these data: In cells and extracts the contact can be indirect. Some entries that bind do so weakly or less than the wild type. For part of these data: Tags and fused reporters may be left off the sequences shown.

The target of assay [1] is T1, Clathrin light chain B (human (endogenous in HUVECs)) (UniProt P09497).
T1 sequence: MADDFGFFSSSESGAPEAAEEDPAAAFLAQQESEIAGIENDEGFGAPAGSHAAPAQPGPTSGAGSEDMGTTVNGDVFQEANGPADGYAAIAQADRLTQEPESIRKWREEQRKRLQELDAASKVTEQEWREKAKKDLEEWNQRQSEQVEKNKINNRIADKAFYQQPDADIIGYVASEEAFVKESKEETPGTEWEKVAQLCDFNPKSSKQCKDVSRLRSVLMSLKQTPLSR
The experiment in a line: co-IP; HUVEC NP-40 lysate (500 ug) with 2 ug anti-CLTB or rabbit IgG, overnight 4 C; Protein A/G magnetic beads; blot.

The target of assay [2] is CBL (human (endogenous in HUVECs)) (UniProt P22681). The assay can be described thus: co-IP; HUVEC NP-40 lysate (500 ug) with 2 ug anti-CBL or rabbit IgG, overnight 4 C; Protein A/G magnetic beads; blot; cells untreated or treated with PBS, CLTB-NC-sEVs or CLTB-OE-sEVs.
Assay [3] addresses T2, Clathrin light chain B, tagged fusion protein for GST pull-down (UniProt P09497).
T2 sequence: T1 sequence
The assay can be described thus: pull-down; 0.5 mg each of His-tagged and GST-tagged fusion proteins combined, 3 h on ice; Glutathione Sepharose 4B; five washes; eluted with 15 mM reduced glutathione; blot with anti-His; both purified.

Take “SH3 domain-containing kinase-binding protein 1 (from UniProt Q96B97 1-665)”: the binding entry in assay [1] and in assay [2] was “binds” throughout. In the case of “SH3 domain-containing kinase-binding protein 1, tagged fusion protein for GST pull-down (from UniProt Q96B97 1-665)”, the binding result in assay [3] is “binds”.
